This is an account of results in article PMC7785878.

In the assay the target is T1, ANXA6 fused to the C-terminal of yellow fluorescent protein (pEYFP-ANXA6-HA) (UniProt P08133).
T1 sequence: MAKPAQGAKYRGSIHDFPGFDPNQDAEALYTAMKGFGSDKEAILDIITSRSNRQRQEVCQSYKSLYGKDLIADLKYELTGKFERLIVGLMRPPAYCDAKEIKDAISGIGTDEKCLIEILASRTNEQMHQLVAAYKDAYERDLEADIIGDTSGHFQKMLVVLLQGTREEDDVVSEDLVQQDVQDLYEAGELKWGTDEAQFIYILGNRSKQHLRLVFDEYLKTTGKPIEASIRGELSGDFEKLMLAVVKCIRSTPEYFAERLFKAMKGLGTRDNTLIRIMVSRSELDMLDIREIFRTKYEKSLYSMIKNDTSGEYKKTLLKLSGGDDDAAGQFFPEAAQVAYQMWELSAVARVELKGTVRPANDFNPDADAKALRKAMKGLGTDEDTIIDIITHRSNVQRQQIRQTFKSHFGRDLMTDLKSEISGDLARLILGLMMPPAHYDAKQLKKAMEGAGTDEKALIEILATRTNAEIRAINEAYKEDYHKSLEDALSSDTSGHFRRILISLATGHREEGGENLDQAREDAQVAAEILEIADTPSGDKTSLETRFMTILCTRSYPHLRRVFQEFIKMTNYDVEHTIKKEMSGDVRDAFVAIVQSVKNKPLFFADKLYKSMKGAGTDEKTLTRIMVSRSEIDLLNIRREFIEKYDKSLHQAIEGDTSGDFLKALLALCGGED
Put plainly: co-IP.

These are yes or no findings as the source states them, for the method shown. Binding seen in cells or lysates may run through a third protein. Binding calls can cover weak binding; strength is not graded here. Where a sequence is shown, tags or fusion partners need not be part of it.

Turning to “EspF N-terminal (1-73 aa) in pEGFP-N1 with flag tag (pEGFP-EspF/N-flag) (Enterohemorrhagic E. coli O157:H7 EDL933) (domain or fragment)”, the binding entry was “no binding”.

In the case of “EspF C-terminal (74-248 aa) in pEGFP-N1 with flag tag (pEGFP-EspF/C-flag) (Enterohemorrhagic E. coli O157:H7 EDL933) (domain or fragment)”, the binding result is “binds”.
